Laboratory results: PMC10761119, “Phosphorylation-state dependent intraneuronal sorting of Aβ differentially impairs autophagy and the endo-lysosomal system” (Autophagy, 2023)

Tested on: APP-PSEN1dE9×THY1-YFP transgenic mouse cortex
Test: Immunohistochemistry colocalization (Mander's overlap coefficient) of Aβ species in transgenic mouse brain sections
Format: in vivo
Conditions: IHC, N = 3 mice; for Mander's overlap coefficient, R, with THY1-YFP-positive neurons / Mander's overlap coefficient, R, with X-34 (plaque core): cortex of APP-PSEN1dE9×THY1-YFP mice; for Mander's overlap coefficient, R, with X-34 (plaque core): endogenous Aβ species detected with phosphorylation-state specific antibodies, ~100 cortical plaques; for Mander's overlap coefficient, R, with EEA1 (early endosomes) / Mander's overlap coefficient, R, with LAMP2 (lysosomes) / Mander's overlap coefficient, R, with LC3-positive vesicles: within THY1-YFP-positive neurons, APP-PSEN1dE9×THY1-YFP mouse cortex

Substance | Mander's overlap coefficient, R, with THY1-YFP-positive neurons | Mander's overlap coefficient, R, with X-34 (plaque core) | Mander's overlap coefficient, R, with EEA1 (early endosomes) | Mander's overlap coefficient, R, with LAMP2 (lysosomes) | Mander's overlap coefficient, R, with LC3-positive vesicles
amyloid-β phosphorylated at serine residue 8 [p-Ser8Aβ] | 0.35 ± 0.18 | 0.67 ± 0.17 | 0.27 ± 0.17 | 0.29 ± 0.16 | 0.49 ± 0.20
amyloid-β phosphorylated at serine residue 26 [p-Ser26Aβ] | 0.43 ± 0.24 | 0.48 ± 0.18 | 0.15 ± 0.12 | 0.46 ± 0.22 | 0.37 ± 0.19
non-modified amyloid-β [nmAβ] | 0.2 ± 0.11 | 0.61 ± 0.22 | 0.13 ± 0.10 | 0.30 ± 0.13 | 0.29 ± 0.13
